PubChem BioAssay AID1508588 – Peter MacCallum Cancer Centre | 2020

Aim: 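Which gene losses make BRAF-mutant melanoma cells more responsive to vemurafenib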 (primary screen)
Cell system: human WM266.4 melanoma cells (BRAF V600 mutant)
Reagents: siRNA pool against human genes, 40 nM
Time to read-out: 96 h from transfection to read-out
Treatment: vemurafenib 300 nM (about IC25), added 48 h after transfection, for 48 h; comparison arm got DMSO vehicle only
Measurement: 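Ratios to non-targeting siRNA for cell gain, counted as DAPI nuclei after minus before drug and averaged over two replicates, and for absorbance-read medium lactate per cell; both binned into fold-change classes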
Reading the numbers: cell gain with vemurafenib: higher = more cell gain than with non-targeting siRNA; lactate per cell with vemurafenib: higher = more lactate made per cell
Rule for the call: 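Enhancement is called by pairing each knock-down's vehicle-arm and drug-arm fold-change classes for viability or glycolysis; which class combinations qualify is not given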
Calls: active = enhances vemurafenib effect; inactive = no enhancement seen
The deposit covers about 18,000 reagents; below is an unselected part. In the full data, 790 (4.4%) were called active. 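Calls rest on a combination of fold-change classes in drug and vehicle arms, not all shown here.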

| gene knocked down | cell gain with vemurafenib | lactate per cell with vemurafenib | activity call |
| --- | --- | --- | --- |
| SPRY1 (sprouty RTK signaling antagonist 1) | 0.31 | 2.17 | inactive |
| REXO1 (RNA exonuclease 1 homolog) | 0.6 | 0.97 | inactive |
| DHFR2 (dihydrofolate reductase 2) | 0.51 | 0.98 | inactive |
| KCNV1 | 0.39 | 0.69 | inactive |
| TEFM (transcription elongation factor, mitochondrial) | 0.75 | 0.57 | inactive |
| DEPTOR (DEP domain containing MTOR interacting protein) | 0.85 | 1.17 | inactive |
| SNRNP48 (small nuclear ribonucleoprotein U11/U12 subunit 48) | 0.18 | 0.56 | inactive |
| ARSB (arylsulfatase B) | 0.28 | 0.34 | inactive |
| OCLN (occludin) | 0.58 | 1.21 | inactive |
| SELENON (selenoprotein N) | 0.36 | 0.98 | inactive |
| HLA-DRB4 (major histocompatibility complex, class II, DR beta 4) | 0.9 | 1.12 | inactive |
| TMEM121B (transmembrane protein 121B) | 0.26 | 1.12 | inactive |
| DNAJC28 (DnaJ heat shock protein family (Hsp40) member C28) | 0.78 | 0.85 | inactive |
| THSD7B (thrombospondin type 1 domain containing 7B) | 0.75 | 1.1 | inactive |
| SLC25A51 | 0.33 | 0.74 | inactive |
| RAB13 (RAB13, member RAS oncogene family) | 0.32 | 1.12 | inactive |
| IFT38 (intraflagellar transport 38) | 0.84 | 0.7 | inactive |
| TOP1 (DNA topoisomerase I) | 0.69 | 1.27 | inactive |
| NR5A2 (nuclear receptor subfamily 5 group A member 2) | 0.3 | 1.25 | inactive |
| SNX31 (sorting nexin 31) | 0.59 | 0.44 | inactive |
| MORF4L2 (mortality factor 4 like 2) | 0.47 | 1.27 | inactive |
| BCAP31 (B cell receptor associated protein 31) | 0.12 | 2.5 | inactive |
| RASSF9 (Ras association domain family member 9) | 0.76 | 0.3 | inactive |
| ART3 (ADP-ribosyltransferase 3 (inactive)) | 0.5 | 1.24 | inactive |
| CAPS2 (calcyphosine 2) | 0.97 | 0.88 | inactive |
| ITGB5 (integrin subunit beta 5) | 0.56 | 0.98 | inactive |
| MTCL2 (microtubule crosslinking factor 2) | 0.93 | 0.98 | inactive |
| DUSP26 (dual specificity phosphatase 26) | 0.39 | 0.32 | inactive |
| CD302 (CD302 molecule) | 0.41 | 0.26 | active |
| TBL2 (transducin beta like 2) | 0.5 | 0.63 | inactive |
| XKR7 (XK related 7) | 0.61 | 1.01 | inactive |
| ZNF142 (zinc finger protein 142) | 0.19 | 1.1 | inactive |
| SORBS3 (sorbin and SH3 domain containing 3) | 0.51 | 0.21 | inactive |
| NSUN5P2 (NSUN5 pseudogene 2) | 0.46 | 0.38 | inactive |
| STOX2 (storkhead box 2) | 0.43 | 1.77 | inactive |
| SPATA31A3 (SPATA31 subfamily A member 3) | 1.03 | 0.46 | inactive |
| ARMC12 (armadillo repeat containing 12) | 0.46 | 0.58 | inactive |
| NFKBIE (NFKB inhibitor epsilon) | 0.78 | 1.02 | inactive |
| CD300E (CD300e molecule) | 0.74 | 0.81 | inactive |
| ZCRB1 (zinc finger CCHC-type and RNA binding motif containing 1) | 0.52 | 1.61 | inactive |
| AQP10 (aquaporin 10) | 0.82 | 0.78 | inactive |
| CCDC15 (coiled-coil domain containing 15) | 0.24 | 2.02 | inactive |
| GAB3 (GRB2 associated binding protein 3) | 0.85 | 0.8 | inactive |
| TMEM86B (transmembrane protein 86B) | 0.56 | 1.54 | inactive |
| WDFY1 (WD repeat and FYVE domain containing 1) | 1.08 | 0.66 | inactive |
| CES1 (carboxylesterase 1) | 0.17 | 1.06 | inactive |
| OPHN1 (oligophrenin 1) | 0.63 | 0.38 | inactive |
| AKAP6 (A-kinase anchoring protein 6) | 0.2 | 1.15 | inactive |
| OR1I1 (olfactory receptor family 1 subfamily I member 1) | 0.29 | 0.06 | inactive |
| HMG20B (high mobility group 20B) | 0.68 | 1.21 | inactive |
| EOLA1 (endothelium and lymphocyte associated ASCH domain 1) | 0.36 | 0.75 | inactive |
| NDUFC1 (NADH:ubiquinone oxidoreductase subunit C1) | 0.39 | 0.88 | inactive |
| BANF1 (barrier to autointegration nuclear assembly factor 1) | 0.45 | 1.42 | inactive |

Records above with an active call (1):
| gene knocked down | cell gain with vemurafenib | lactate per cell with vemurafenib | activity call |
| --- | --- | --- | --- |
| CD302 (CD302 molecule) | 0.41 | 0.26 | active |

The results go on.
| gene knocked down | cell gain with vemurafenib | lactate per cell with vemurafenib | activity call |
| --- | --- | --- | --- |
| RPRD2 (regulation of nuclear pre-mRNA domain containing 2) | 1.06 | 0.9 | inactive |
| CAPZA2 (capping actin protein of muscle Z-line subunit alpha 2) | 0.89 | 0.74 | inactive |
| TAAR5 (trace amine associated receptor 5) | 0.53 | 2.08 | inactive |
| PBX1 (PBX homeobox 1) | 0.4 | 2.2 | inactive |
| CMTM7 (CKLF like MARVEL transmembrane domain containing 7) | 0.65 | 0.78 | inactive |
| ASF1A (anti-silencing function 1A histone chaperone) | 0.94 | 0.42 | inactive |
| MASP1 (MBL associated serine protease 1) | 0.57 | 1.26 | inactive |
| TEX56P (testis expressed 56, pseudogene) | 0.4 | 0.66 | inactive |
| HEXA (hexosaminidase subunit alpha) | 0.67 | 0.66 | inactive |
| TRAF1 (TNF receptor associated factor 1) | 0.49 | 0.42 | inactive |
| RPS6KL1 (ribosomal protein S6 kinase like 1) | 0.56 | 0.84 | inactive |
| DRC5 (dynein regulatory complex subunit 5) | 0.2 | 0.79 | inactive |
| HARBI1 (harbinger transposase derived 1) | 0.77 | 1.4 | inactive |
| OTOGL (otogelin like) | 0.66 | 0.78 | inactive |
| NUP62 (nucleoporin 62) | 0.27 | 2 | inactive |
| SSX2 (SSX family member 2) | 0.51 | 0.68 | inactive |
| ACAN (aggrecan) | 0.41 | 0.6 | inactive |
| TF (transferrin) | 0.23 | 0.82 | inactive |
| SLC35A1 | 0.14 | 1.14 | inactive |
| RALGPS2 (Ral GEF with PH domain and SH3 binding motif 2) | 0.78 | 0.62 | inactive |
| ZFP30 (ZFP30 zinc finger protein) | 0.52 | 0.63 | inactive |
| OR5L2 (olfactory receptor family 5 subfamily L member 2) | 0.46 | 0.16 | inactive |
| TRIM5 (tripartite motif containing 5) | 0.93 | 1.13 | inactive |
| STAG2 (STAG2 cohesin complex component) | 0.75 | 0.84 | inactive |
| CCDC12 (coiled-coil domain containing 12) | 0.72 | 0.32 | inactive |
| CCDC126 (coiled-coil domain containing 126) | 0.48 | 1.71 | inactive |
| LUZP1 (leucine zipper protein 1) | 0.59 | 0.3 | inactive |
| TMEM192 (transmembrane protein 192) | 0.67 | 0.42 | inactive |
| AURKA (aurora kinase A) | -0.09 | 2.12 | inactive |
| XCR1 (X-C motif chemokine receptor 1) | 0.97 | 0.6 | inactive |
| MS4A2 (membrane spanning 4-domains A2) | 0.19 | 1.1 | inactive |
